# Results taken from the supplement of paper PMC4371806.
# The full ranking holds about 1,600 compounds; the median of “plate-normalized OD600 growth (mean of duplicates)” is about 0.31, and the lowest 2% start at about 0.23. This is one part of the list.
# Test system: Escherichia coli BW25113
# Assay: plate-normalized OD600 growth (mean of duplicates) (OD600 (normalized)); higher = more growth (less inhibition)
# Settings: 10 µM
# Procedure: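 E. coli BW25113 in LB (100 µl, 96-well, no shaking) was exposed to 10 µM of each compound (here the ChemBridge subset of a ~30,000-member library) and grown at 37°C for 24 h or 15°C for 48 h, in duplicate. Growth was read as OD600 and the duplicate ODs were normalized across screening plates to correct plate-to-plate variation.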
Compound,"plate-normalized OD600 growth (temperature: 15°C, 48 h)","plate-normalized OD600 growth (temperature: 37°C, 24 h)"
COCc1cc(C)nc(NN)c1C#N,0.258,0.622
Fc1ccc(CN2CCN(c3ccccn3)CC2)c(F)c1,0.244,0.601
CCC1CCCCN1C(=O)c1cccs1 (configuration not stated),0.225,0.613
Cc1cc(C)n(S(=O)(=O)c2ccccc2)c(=O)n1,0.252,0.619
O=C(Nc1nc(-c2ccccc2)cs1)c1ccccc1,0.255,0.602
c1ccc(-c2ccn(-c3ccccc3)n2)cc1,0.245,0.604
COc1ccc(NC(=O)C2CCC(C)(C(=O)O)C2(C)C)cc1 (configuration not stated),0.232,0.614
C=CCn1c(=O)n(CCC#N)c(=O)n(CCC#N)c1=O,0.253,0.624
O=C1CCCc2c1nc(-c1cccc([N+](=O)[O-])c1)n2O,0.224,0.596
NS(=O)(=O)c1ccc2c(c1)C1C=CCC1C(C1CC=CCC1)N2 (configuration not stated),0.25,0.611
Cc1c(C(=O)N2CCC(C(N)=O)CC2)sc(N)c1C#N,0.264,0.633
COc1ccc(-n2c(NN)nc3sc4c(c3c2=O)CCCC4)cc1,0.261,0.636
Cc1nonc1NC(=O)Nc1ccncc1,0.18,0.615
Cc1ccc(-c2csc(C(C#N)=Cc3ccc(Br)o3)n2)c(C)c1,0.26,0.624
Cc1cc(OCC(=O)N(C)C2CCCCC2)ccc1Cl,0.246,0.647
C1CCCC(NCCN2CCCCC2)CC1,0.264,0.656

Compound,"plate-normalized OD600 growth (temperature: 15°C, 48 h)","plate-normalized OD600 growth (temperature: 37°C, 24 h)"
O=C(O)C1CCCN1S(=O)(=O)c1ccc([N+](=O)[O-])cc1 (configuration not stated),0.256,0.626
N#Cc1c(NC(=O)c2ccco2)sc2c1CCCCC2,0.265,0.653
Cn1cnc([N+](=O)[O-])c1Sc1cn2c(n1)CCC2,0.237,0.615
N#CC(=Cc1cccs1)c1nc(-c2ccc3c(c2)OCO3)cs1,0.241,0.61
O=C(O)CCCC(=O)Nc1ccc(Cl)c(Cl)c1,0.247,0.602
CC1CCC2(CC1)C(C#N)C(=O)NC(=O)C2C#N (configuration not stated),0.244,0.615
COc1cc(CNc2ccccc2F)cc(OC)c1,0.257,0.626
CC1CCC(N2CCCN(C)CC2)CC1 (configuration not stated),0.282,0.645
COc1nc(N)c(C#N)c(-c2ccc(N(C)C)cc2)c1C#N,0.248,0.633
CC1=C(C)CC2C(=O)N(Cc3ccccc3)C(=O)C2C1 (configuration not stated),0.24,0.654
CCCCOc1ccc(CN2CCN(CCOCCO)CC2)cc1,0.216,0.626
C#CCn1c(-c2nonc2N)nc2ccccc21,0.251,0.605
Cc1ccc(S(=O)(=O)Nc2nnc(C)s2)cc1,0.265,0.624
CCCc1nc(N)c(C#N)c(-c2ccco2)c1CC,0.249,0.606
O=S(=O)(Cc1ccccc1)N1CCN(c2ccccc2)CC1,0.257,0.626

# Whole records, looked up by structure. Values in the order: plate-normalized OD600 growth (temperature: 15°C, 48 h)	plate-normalized OD600 growth (temperature: 37°C, 24 h)
# Cc1ccc(S(=O)(=O)Nc2nnc(C)s2)cc1 in the list: 0.265	0.624
# Cn1cnc([N+](=O)[O-])c1Sc1cn2c(n1)CCC2 in the list: 0.237	0.615
